Article PMC4525183, “Snf1/AMP-activated protein kinase activates Arf3p to promote invasive yeast growth via a non-canonical GEF domain” (Nature Communications, 2015)

The chains behind the UniProt entries cited, without tags or fusion partners.
UniProt P11075: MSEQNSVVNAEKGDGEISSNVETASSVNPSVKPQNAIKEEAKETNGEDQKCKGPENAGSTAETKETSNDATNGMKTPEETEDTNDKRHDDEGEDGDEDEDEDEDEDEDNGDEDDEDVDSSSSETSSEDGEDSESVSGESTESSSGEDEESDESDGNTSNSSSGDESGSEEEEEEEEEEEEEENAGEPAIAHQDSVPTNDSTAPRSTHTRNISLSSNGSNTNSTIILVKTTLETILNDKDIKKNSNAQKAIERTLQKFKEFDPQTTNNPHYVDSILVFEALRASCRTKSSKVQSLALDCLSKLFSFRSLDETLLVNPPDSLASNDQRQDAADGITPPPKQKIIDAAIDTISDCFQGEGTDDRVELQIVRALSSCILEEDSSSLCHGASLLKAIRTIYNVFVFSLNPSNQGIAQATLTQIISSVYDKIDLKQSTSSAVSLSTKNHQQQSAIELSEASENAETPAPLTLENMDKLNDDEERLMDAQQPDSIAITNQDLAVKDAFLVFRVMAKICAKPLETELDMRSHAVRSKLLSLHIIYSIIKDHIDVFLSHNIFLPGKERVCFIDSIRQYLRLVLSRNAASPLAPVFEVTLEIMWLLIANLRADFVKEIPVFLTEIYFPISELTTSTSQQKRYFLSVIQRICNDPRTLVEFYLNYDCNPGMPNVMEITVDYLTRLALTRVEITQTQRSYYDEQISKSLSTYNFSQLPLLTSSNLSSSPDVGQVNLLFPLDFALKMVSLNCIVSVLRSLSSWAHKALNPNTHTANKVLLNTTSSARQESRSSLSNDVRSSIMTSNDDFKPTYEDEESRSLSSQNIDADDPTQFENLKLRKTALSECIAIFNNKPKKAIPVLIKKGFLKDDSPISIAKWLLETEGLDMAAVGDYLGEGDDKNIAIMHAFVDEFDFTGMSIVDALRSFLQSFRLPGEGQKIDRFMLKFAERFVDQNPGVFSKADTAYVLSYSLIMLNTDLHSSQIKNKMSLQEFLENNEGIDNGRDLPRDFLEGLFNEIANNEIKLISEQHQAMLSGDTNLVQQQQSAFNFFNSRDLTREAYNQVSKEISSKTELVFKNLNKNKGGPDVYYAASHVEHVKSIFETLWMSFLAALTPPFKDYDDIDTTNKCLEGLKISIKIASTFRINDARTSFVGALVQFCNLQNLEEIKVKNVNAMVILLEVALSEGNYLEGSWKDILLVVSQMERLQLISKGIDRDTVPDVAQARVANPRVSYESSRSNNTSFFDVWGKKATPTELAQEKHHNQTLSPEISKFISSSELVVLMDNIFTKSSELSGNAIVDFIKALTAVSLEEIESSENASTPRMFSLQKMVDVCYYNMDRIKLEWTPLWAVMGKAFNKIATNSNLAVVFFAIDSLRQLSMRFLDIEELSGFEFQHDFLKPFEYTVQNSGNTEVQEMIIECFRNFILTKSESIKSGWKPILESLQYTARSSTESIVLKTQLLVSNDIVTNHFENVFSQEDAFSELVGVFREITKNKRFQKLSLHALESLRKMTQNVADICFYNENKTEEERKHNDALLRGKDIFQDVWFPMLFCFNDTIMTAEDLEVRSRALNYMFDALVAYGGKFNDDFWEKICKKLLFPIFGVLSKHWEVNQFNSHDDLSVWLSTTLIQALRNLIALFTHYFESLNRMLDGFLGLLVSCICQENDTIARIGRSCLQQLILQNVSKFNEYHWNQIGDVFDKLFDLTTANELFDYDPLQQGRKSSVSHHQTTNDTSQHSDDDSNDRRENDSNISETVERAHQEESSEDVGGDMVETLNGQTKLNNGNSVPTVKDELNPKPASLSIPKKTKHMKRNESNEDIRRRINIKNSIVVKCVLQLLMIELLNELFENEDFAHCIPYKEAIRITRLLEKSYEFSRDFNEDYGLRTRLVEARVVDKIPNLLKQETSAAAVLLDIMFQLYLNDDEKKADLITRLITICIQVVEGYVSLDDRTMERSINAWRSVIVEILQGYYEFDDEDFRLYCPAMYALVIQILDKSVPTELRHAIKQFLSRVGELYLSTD

T1: dominant-negative GDP-bound Arf3p^T31N (bait used to capture potential GEFs) (S. cerevisiae) (UniProt P40994)
T1 sequence: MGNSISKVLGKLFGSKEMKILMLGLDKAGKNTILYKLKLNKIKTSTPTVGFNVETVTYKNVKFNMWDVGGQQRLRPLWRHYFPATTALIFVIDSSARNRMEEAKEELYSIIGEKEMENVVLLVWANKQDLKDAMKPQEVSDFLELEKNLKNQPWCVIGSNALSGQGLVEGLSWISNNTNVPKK


Molecular target: T1, dominant-negative GDP-bound Arf3p^T31N (bait used to capture potential GEFs) (S. cerevisiae)
Assay: affinity purification with mass spectrometry; dominant-negative GDP-bound Arf3p T31N used to capture potential GEFs from lysates of starved yeast

Row | Molecule | binding
1 | Sec7p (from UniProt P11075 1-2009) | binds
2 | Lte1p (protein, UniProt P07866 1-1435) MEIFSQKDYYPTPSSNVISYESDCVSKPVNSADLPALIVHLSSPLEGVDYNASADFFLIYRNFITPQDLHDLLIYRFRWCIREITTNAAKAKRRRIGEVALVRTFVLLRHSILNYFVQDFLPNITLRLRLIEFLNDKHIEQYPKIISSCIINLKKNWVHCSKLVWENIELNEPDKLDFDAWLHYSLKDFTQLESLHKRGSRLSIYARQSFASPDFRNQSVLSLYKTSDVFRLPEKLQSSNSSKNQRSPSMLLFPDNTSNVYSKHRIAKEPSVDNESEDMSDSKQKISHLSKVTLVSTLMKGVDYPSSYAVDKIMPPTPAKKVEFILNSLYIPEDLNEQSGTLQGTSTTSSLDNNSNSNSRSNTSSMSVLHRSAIGLLAKWMKNHNRHDSSNDKKFMSAIKPANQKPEMDAFVKYVVSISSLNRKSSKEEEEEFLNSDSSKFDILSARTIDEVESLLHLQNQLIEKVQTHSNNNRGPTVNVDCERREHIHDIKILQQNSFKPSNDNFSAMDNLDLYQTVSSIAQSVISLTNTLNKQLQNNESNMQPSPSYDALQRRKVKSLTTAYYNKMHGSYSAESMRLFDKDNSSSRTDENGPQRLLFHETDKTNSEAITNMTPRRKNHSQSQKSMTSSPLKNVLPDLKESSPLNDSREDTESITYSYDSELSSSSPPRDTVTKKSRKVRNIVNNTDSPTLKTKTGFLNLREFTFEDTKSLDEKKSTIDGLEKNYDNKENQESEYESTKKLDNSLDASSEANNYDITTRKKHSSCNHKIKQAVVRPASGRISISRVQSIAITPTKELSIVDPEQNKSNSVIEEISEIEPLNLEYNKKSALYSDTSSTVISISTSKLFESAQNSPLKQTQNPQREFPNGTSVSETNRIRLSIAPTIESVVSDLNSITTGSTVETFETSRDLPVPHQRIINLREEYQRGNQDIISNTSSLHELKTIDLSDSNNDLESPSTHAKNNKYFFSPDDGSIDVASPMKNVEELKSKFLKNESETNSNISGSVLTMDDIDINDTSSARNTRRANSESAFTGSLNKKNLNEIANMLDDSINDDPITVALMKLEGTYEKIPEKPENTKSSDAIGIKTSKLADEVEMLNLNNLPSFQNSPAEKRKSLLIERRRQTIMNIPFTPDQSEKEGFTSSSPEKIDVSANVDVAVQAAQIQELIGQYRIHDSRLMISNNESHVPFILMYDSLSVAQQMTLIEKEILGEIDWKDLLDLKMKHEGPQVISWLQLLVRNETLSGIDLAISRFNLTVDWIISEILLTKSSKMKRNVIQRFIHVADHCRTFQNFNTLMEIILALSSSVVQKFTDAWRLIEPGDLLTWEELKKIPSLDRNYSTIRNLLNSVNPLVGCVPFIVVYLSDLSANAEKKDWILEDKVVNYNKFDTNVQIVKNFIQRVQWSKFYTFKVNHELLSKCVYISTLTQEEINELST | binds
3 | Rom2p (protein, UniProt P51862 1-1356) MSETNVDSLGDRNDIYSQIFGVERRPDSFATFDSDSHGDISSQLLPNRIENIQNLNVLLSEDIANDIIIAKQRRRSGVEAAIDDSDIPNNEMKGKSSNYILSQQTNIKEVPDTQSLSSADNTPVSSPKKARDATSSHPIVHAKSMSHIYSTSNSASRQAKHYNDHPLPPMSPRNEVYQKNKSTTAFVPKRKPSLPQLALAGLKKQSSFSTGSASTTPTQARKSPLQGFGFFSRPSSKDLHEQHQHHQHIQHNNINNHNNNNTNNNGAHYQVGSSNSNYPQHSHSISSRSMSLNSSTLKNIASSFQSKTSNSRKATQKYDITSNPFSDPHHHHHHHHSSNSHSSLNNVHGSGNSSSVMGSSSNIGLGLKTRVSSTSLALKRYTSVSGTSLSSPRRSSMTPLSASRPVMSASSKKPQVYPALLSRVATKFKSSIQLGEHKKDGLVYRDAFTGQQAVDVICAIIRTSDRNLALLFGRSLDAQKLFHDVVYEHRLRDSPHEVYEFTDNSRFTGTGSTNAHDPLMLLPNSSSFNSGNHSYPNSGMVPSSSTSSLNSDQATLTGSRLHMSSSLSQQKNPAAIHNVNGVFTLLAECYSPTCTRDALCYSISCPRRLEQQARLNLKPNGGLKRNISMALDDDDEEKPSWTSSVSKEDWENLPKKEIKRQEAIYEVYITEKNFVKSLEITRDTFMKTLAETNIISADIRKNFIKHVFAHINDIYSVNRRFLKALTDRQRSSPVVRGIGDIVLRFIPFFEPFVSYVASRPYAKYLIETQRSVNPYFARFDDDMMSSSLRHGIDSFLSQGVSRPGRYMLLVKEIMKSTDPEKDKSDYEDLSKAMDALRDFMKRIDQASGAAQDRHDVKLLKQKILFKNEYVNLGLNDERRKIKHEGILSRKELSKSDGTVVGDIQFYLLDNMLLFLKAKAVNKWHQHKVFQRPIPLPLLFACPGEDMPALRKYIGDHPDCSGTVIQPEYNTSNPKNAITFLYYGAKQRYQVTLYAAQYAGLQTLLEKIKQGQAAIISKTEMFNVTKMSDRFFDYTNKINSVTSCDGGRKLLIATNSGLYMSNIKRQQNKDHRHKSSAFFSTPIQLVQRNNITQIAVLEEFKSIILLIDKKLYSCPLSLIEAEGNGTSFFKKHHKELINHVSFFAEGDCNGKRLIVTAHSSSHSIKYFEHEHPLLAEKNGSGSGNKKSLKKKITEVIFDSEPVSISFLKANLCIGCKKGFQIVSISQNAHESLLDPADTSLEFALRDTLKPMAIYRVGNMFLLCYTEFAFFVNNQGWRKKESHIIHWEGEPQKFAIWYPYILAFDSNFIEIRKIETGELIRCVLADKIRLLQTSTQEILYCYEDYRGYDTVASLDFWG | binds
4 | Gea1p (protein, UniProt P47102 1-1408) MHDVPMETVLAVNPATMIVKECINLCSAMNKQSRDKSQTSVAALLGGGSDIFLSQSDSFVDSFHNLPTSSYHDPLISGLVQLRLKINDLKGLDSLNALELLKPFLEIVSASSVSGYTTSLALDSLQKVFTLKIINKTFNDIQIAVRETVVALTHCRFEASKQISDDSVLLKVVTLLRDIITSSFGDYLSDTIIYDVLQTTLSLACNTQRSEVLRKTAEVTIAGITVKLFTKLKLLDPPTKTEKYINDESYTDNNLKDDIIGTTTSDNDLSSTDDDSAVADDNKNEKPVQQVIREQENDEETAEKAENVEPNYGITVIKDYLGLLLSLVMPENRMKHTTSAMKLSLQLINAAIEISGDKFPLYPRLFSLISDPIFKSVLFIIQSSTQYSLLQATLQLFTSLVVILGDYLPMQIELTLRRIFEILEDTTISGDVSKQKPPAIRELIIEQLSILWIHSPAFFLQLFVNFDCNLDRSDLSIDFIKELTKFSLPAAAVNTSNNIPPICLEGVLSLIENIYNDLQRFDRAEFVKNQKEIDILKQRDRKTEFILCVETFNEKAKKGIQMLIEKGFIDSDSNRDIASFLFLNNGRLNKKTIGLLLCDPKKTSLLKEFIDLFDFKGLRVDEAIRILLTKFRLPGESQQIERIVEAFSSKYSADQSNDKVELEDKKAGKNGSESMTEDDIIHVQPDADSVFVLSYSIIMLNTDSHNPQVKDHMTFDDYSNNLRGCYNGKDFPRWYLHKIYTSIKVKEIVMPEEHHGNERWFEDAWNNLISSTSVMTEMQRDFTNPISKLAQIDILQYEKAIFSNVRDIILKTLFKIFTVASSDQISLRILDAISKCTFINYYFSFDQSYNDTVLHLGEMTTLAQSSAKAVELDVDSIPLVEIFVEDTGSKISVSNQSIRLGQNFKAQLCTVLYFQIIKEISDPSIVSTRLWNQIVQLILKLFENLLMEPNLPFFTNFHSLLKLPELPLPDPDISIRKAKMSRSLLSTFASYLKGDEEPSEEDIDFSIKAFECVKASHPLSSVFENNQLVSPKMIETLLSSLVIEKTSENSPYFEQELLFLLEISIILISEASYGQEFGALIADHMINISNLDGLSKEAIARLASYKMFLVSRFDNPRDILSDLIEHDFLVKNEIFNTKYYESEWGKQVINDLFTHLNDVKYNERALKNVKFWNFLRILISAKDRQFAVYTFLEKYIQNGDIFVDDGNFMNILSLLDEMSCAGAVGTKWEQNYENSVEDGCEAPESNPYRSIIDLSSRSINITADLLSTVGRSNSALNKNEIIAAIQGLAHQCLNPCDELGMQALQALENILLSRASQLRTEKVAVDNLLETGLLPIFELDEIQDVKMKRITSILSVLSKIFLGQLVEGVTSNETFLRVLNVFNKYVDDPTVERQLQELIISKREIEKE | binds
5 | Snf1p (found in the capture from lysates of starved yeast) (protein, UniProt P06782 1-633) MSSNNNTNTAPANANSSHHHHHHHHHHHHHGHGGSNSTLNNPKSSLADGAHIGNYQIVKTLGEGSFGKVKLAYHTTTGQKVALKIINKKVLAKSDMQGRIEREISYLRLLRHPHIIKLYDVIKSKDEIIMVIEYAGNELFDYIVQRDKMSEQEARRFFQQIISAVEYCHRHKIVHRDLKPENLLLDEHLNVKIADFGLSNIMTDGNFLKTSCGSPNYAAPEVISGKLYAGPEVDVWSCGVILYVMLCRRLPFDDESIPVLFKNISNGVYTLPKFLSPGAAGLIKRMLIVNPLNRISIHEIMQDDWFKVDLPEYLLPPDLKPHPEEENENNDSKKDGSSPDNDEIDDNLVNILSSTMGYEKDEIYESLESSEDTPAFNEIRDAYMLIKENKSLIKDMKANKSVSDELDTFLSQSPPTFQQQSKSHQKSQVDHETAKQHARRMASAITQQRTYHQSPFMDQYKEEDSTVSILPTSLPQIHRANMLAQGSPAASKISPLVTKKSKTRWHFGIRSRSYPLDVMGEIYIALKNLGAEWAKPSEEDLWTIKLRWKYDIGNKTNTNEKIPDLMKMVIQLFQIETNNYLVDFKFDGWESSYGDDTTVSNISEDEMSTFSAYPFLHLTTKLIMELAVNSQSN | binds

These are yes or no findings as the source states them, for the method shown. Binding seen in cells or lysates may run through a third protein. Here binding means that the protein was enriched with, or labelled near, the bait; the list need not be complete.
